Results deposited as PubChem BioAssay AID504784 (Drosophila RNAi Screening Center, 2011)

Test: 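Genome-wide knock-down for genes giving too much or too little stored lipid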 (primary screen)
Cells: Drosophila Kc167 embryonic cells
Reagents: long dsRNA against Drosophila genes, about 250 ng dsRNA per well
Time to read-out: 4 days
Conditions: cells fed 400 µM oleic acid bound to BSA
Read-out: 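Cells imaged and segmented; ratio of lipid droplet area to nuclear area, log-transformed, then normalised as a B-score over the screen; higher means more stored lipid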
Reading the numbers: droplet/nuclear area B-score: higher = more stored lipid (overstorage)
The deposit covers about 17,000 reagents; this is a random part of those with a known target gene and a result. 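Each column is one replicate's B-score; the combined score over replicates was not deposited, so single values may mislead.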 A plus sign joins genes that one reagent is predicted to hit.

target	amplicon	droplet/nuclear area B-score, replicate 1	droplet/nuclear area B-score, replicate 2	droplet/nuclear area B-score, replicate 3
nito (GeneID 35756)	DRSC05943	-2.99	-0.16	
Nek2 (GeneID 31696)	DRSC18124	-0.234	-0.174	0.875
Prosbeta3 (GeneID 41079)	DRSC16801	-0.717	0.632	
Iris (GeneID 33290)	DRSC00663	-0.509	-0.0989	
CG32262 (GeneID 38445)	DRSC08165	-0.0796	0.752	
l(3)04053 (GeneID 46158)	DRSC11640	-1.16	-0.0871	-0.709
Cpr65Aw (GeneID 38706)	DRSC08794	-0.23	-0.665	
spaw (GeneID 246568)	DRSC06824	0.06	1.09	
Prp19 (GeneID 37123)	DRSC07434	0.279	0	
CrebA (GeneID 39682)	DRSC11122	-0.29	0.0301	-0.529
ms(2)34Fe (GeneID 34833)	DRSC01905	0.964	-0.0831	
CG6836 (GeneID 40070)	DRSC10722	-0.901	0.668	0.0125
lbk (GeneID 36788)	DRSC07178	-0.00505	0.507	
trol (GeneID 45320)	DRSC18613	-0.578	0.626	
trol (GeneID 45320)	DRSC18814	-0.476	-0.485	
CG9875 (GeneID 37698)	DRSC04585	-0.618	-0.0811	
CG31549 (GeneID 40689)	DRSC21688	1.09	0.754	
Naxd (GeneID 40085)	DRSC09722	0.361	0.0678	0.42
Nnf1a (GeneID 37325)	DRSC06394	-1.37	-0.141	
CG15599 (GeneID 32503)	DRSC19668	-1.27	-0.875	
CG12502 (GeneID 38102)	DRSC08281	-0.0223	0.937	
CG12502 (GeneID 38102)	DRSC23247	0.737	-1.32	
olf413 (GeneID 40453)	DRSC11543	1.42	0.0353	
olf413 (GeneID 40453)	DRSC11679	-0.0499	1.4	-1.13
olf413 (GeneID 40453)	DRSC11721	-0.149	-1.28	
olf413 (GeneID 40453)	DRSC11833	-1.08	0.0127	-1.4
Grl43a (GeneID 35705)	DRSC06383	0.811	2.57	
CG10911 (GeneID 37058)	DRSC06008	-0.307	0.386	
CG31051 (GeneID 261634)	DRSC15034	0.44	-0.685	
Ak1 (GeneID 39396)	DRSC10248	2.52	1.75	
Dic1 (GeneID 41640)	DRSC14125	1.13	1.64	
Ada2a (GeneID 326128)	DRSC16206	-1.24	-3.29	
Ada2a (GeneID 326128)	DRSC21598	-1.47	-1.13	
Alp8 (GeneID 37540)	DRSC04353	-0.00885	0.197	
CG15169 (GeneID 35161)	DRSC02470	0.255	-0.175	

Reformatted: entries from further up
target | amplicon | droplet/nuclear area B-score, replicate 1 | droplet/nuclear area B-score, replicate 2 | droplet/nuclear area B-score, replicate 3
CG6836 (GeneID 40070) | DRSC10722 | -0.901 | 0.668 | 0.0125
lbk (GeneID 36788) | DRSC07178 | -0.00505 | 0.507 | –
trol (GeneID 45320) | DRSC18613 | -0.578 | 0.626 | –
trol (GeneID 45320) | DRSC18814 | -0.476 | -0.485 | –
CG9875 (GeneID 37698) | DRSC04585 | -0.618 | -0.0811 | –

Continued.
target	amplicon	droplet/nuclear area B-score, replicate 1	droplet/nuclear area B-score, replicate 2	droplet/nuclear area B-score, replicate 3
CG7110 (GeneID 34757)	DRSC03011	-0.476	0.103	
CG7110 (GeneID 34757)	DRSC03012	0.138	-1.54	
CG10274 (GeneID 38716)	DRSC09716	4.18		
CG10097 + CG10096	DRSC14189	0.741	0.0281	
CG10097 + CG10096	DRSC14190	-0.862	-0.401	
CG5235 (GeneID 39758)	DRSC10494	0.237	-0.865	
CG17075 (GeneID 33191)	DRSC00483	-0.722	-0.962	
CG3581 (GeneID 42315)	DRSC15499	1.03	-2.04	
Ssl2 (GeneID 43424)	DRSC14395	0.39	0.707	
Ssl2 (GeneID 43424)	DRSC22796	-0.107	1.37	
CG2256 (GeneID 31727)	DRSC18220	-1.56	-0.228	
CG3788 (GeneID 37644)	DRSC04418	0.293	-2.32	
veli (GeneID 43003)	DRSC16276	-0.408	2.62	
Dlc90F (GeneID 42199)	DRSC16649	0.492	0.13	
Obp59a (GeneID 37605)	DRSC04160	1.1	0.254	
Gli (GeneID 34927)	DRSC03332	0.1	-0.376	
Efa6 (GeneID 42665)	DRSC13569	-0.215	0.202	
Efa6 (GeneID 42665)	DRSC15312	3.07	2.26	
Efa6 (GeneID 42665)	DRSC16141	-1.54	0.608	
trh (GeneID 38065)	DRSC08355	0.352	-1.57	
trh (GeneID 38065)	DRSC08739	-0.0504	0.234	
uex (GeneID 5740320)	DRSC20786	-0.546	-0.714	
CG31097 (GeneID 43058)	DRSC14666	0.339	-0.0392	
Gs2 (GeneID 32087)	DRSC20250	-0.071	-0.091	0.354
Adk1 (GeneID 41476)	DRSC15514	1.22	-0.73	
dos (GeneID 38321)	DRSC07992	0.212	1.52	
dos (GeneID 38321)	DRSC08713	0.673	-1.05	
dos (GeneID 38321)	DRSC23285	-3	-1.53	
spg (GeneID 43404)	DRSC14373	-2.51	2.15	
spg (GeneID 43404)	DRSC14881	0.455	-0.673	
CG15014 (GeneID 38533)	DRSC08468	1.85	2.52	
CG14195 (GeneID 32911)	DRSC19550	-2.02	0.0533	
KFase (GeneID 33907)	DRSC03258	1.03	-0.927	
MBD-like (GeneID 41151)	DRSC16996	0.86	0.518	
CG12910 (GeneID 36082)	DRSC06225	0.149	1.72	
CG11699 (GeneID 32101)	DRSC19419	0.582	-0.306	-0.451
CG32983 (GeneID 50434)	DRSC22367	1.2	0.0808	
CG18641 (GeneID 33429)	DRSC00527	1.88	-0.894	
Axs (GeneID 32645)	DRSC19333	0.211	0.0113	
mib2 (GeneID 35170)	DRSC02623	1.35	0.213	
CG8818 (GeneID 36375)	DRSC07275	1.28	-0.761	
CG13058 (GeneID 39806)	DRSC09941	-0.29	-0.0538	
Rab19 (GeneID 38930)	DRSC11260	-0.753	-2.12	
dj (GeneID 40838)	DRSC12625	-1.59	0.673	
asun (GeneID 41971)	DRSC16733	-0.0324	-4.24	
elB (GeneID 34844)	DRSC01379	-0.658	0.922	
elB (GeneID 34844)	DRSC03527	0.116	-0.606	
Thor (GeneID 33569)	DRSC00770	-0.0691	-0.423	
